# Experimental data: PubChem BioAssay AID595 (National Center for Advancing Translational Sciences (NCATS), 2007)
# About 310 (0.44%) of roughly 71,000 compounds were called active. This list was built around the results that the source calls inconclusive (neither active nor inactive); the mix of calls is not that of the screen. Calls come from the whole dose curve; as a rule, active = well fitted curve in either direction with a large enough effect; inconclusive = small, poorly fitted or top-dose-only effect, or another doubt; inactive = flat fitted curve, though single readings scatter. Potencies of inconclusive entries are doubtful fits and often do not repeat.
# Test system: Hsp90 C-terminal peptide / TPR2A (Hop) interaction, human
# Test: qHTS Assay for Disrupters of an Hsp90 Co-Chaperone Interaction
# Conditions: AlphaScreen TPR2A-His6 binding biotin-Hsp90 C-terminal peptide; activity change, negative = inhibition: at 57 µM (top of the series) unless noted
# % is set by controls: 0 for no effect and ±100 for the full control effect; potency is the fitted concentration of half-maximal effect.
Structure (SMILES),"activity change, negative = inhibition",Potency
Cc1ccc2cc(CN(Cc3ccco3)C(=O)C3CCCCC3)c(=O)[nH]c2c1C,inactive,–
CC(C)=CCC/C(C)=C/C=O,inactive,–
CCCCN(Cc1cc2cc(OC)ccc2[nH]c1=O)C(=O)c1ccco1,inconclusive: 41.7%,–
CCNc1ncc2nc(-c3ccccc3)c(=O)n(Cc3cccs3)c2n1,inactive,–
COc1ccc(NC(=O)C2CCCN2S(=O)(=O)c2ccc3c(c2)CCC(=O)N3)c(OC)c1 (stereo not drawn),inactive,–
COc1cccc(N(C(=O)Cn2nnc3ccccc32)C(C(=O)NCc2ccco2)c2cccnc2)c1 (stereo not drawn),inconclusive: 76.8%,–
COC(=O)[C@@]1(Cc2ccc(F)cc2)[C@H]2c3cc(C(=O)N(C)C)n(CCF)c3C[C@H]2CN1C(=O)c1ccccc1,inconclusive: 72.5%,–
O=C(c1cc2sccc2n1Cc1ccccc1)N1CCc2ccccc21,–,"inconclusive: 31.6 µM [activator, single point]"
Cc1ccccc1N(CC(=O)NCCSCc1ccco1)S(C)(=O)=O,inconclusive: 47.4% [at 11 µM],–
Cc1ccc(-c2nnc3ccc(SC(C)C(=O)O)nn23)cc1 (stereo not drawn),inactive,–
O=C(Nc1cccc(C(=O)Nc2ccc(S(=O)(=O)O)c3cc(S(=O)(=O)O)cc(S(=O)(=O)O)c23)c1)Nc1cccc(C(=O)Nc2ccc(S(=O)(=O)O)c3cc(S(=O)(=O)O)cc(S(=O)(=O)O)c23)c1,–,"inconclusive: 39.8 µM [inhibitor, single point]"
O=C(CSc1nnc(-c2ccc(Cl)s2)o1)N1CCCc2ccccc21,inactive,–
COc1ccc(OCC(=O)Nc2cccc3cccnc23)cc1,–,"inconclusive: 25.1 µM [activator, single point]"
CCN1CCN(c2ncc(C(=O)N3CCCc4ccccc43)c3ccccc23)CC1,inconclusive: 36.3%,–
CC(=O)c1cccc(NC(=O)CN(c2ccc(C)cc2)S(=O)(=O)c2cccc3nonc23)c1,inactive,–
COc1cc(NC(=O)c2cccc3c2C(=O)N(Cc2cccnc2)C3)cc(OC)c1OC,inconclusive: 41.3%,–
COc1ccc(NS(=O)(=O)c2ccc(I)cc2)cc1N1CCN(C)CC1,inconclusive: 52.9%,–
CCCCc1cc2c(c(NC(=O)CC)n1)c(=O)oc1ccccc12,inconclusive: 35%,–
CSc1ccc2c(c1)N(CCCN(C)C)c1ccccc1S2,inactive: -7.63% [at 11 µM],–
COc1ccc(C(=O)n2nc(-c3ccc(Cl)cc3)nc2N)cc1OC,inconclusive: 41.6%,–
COc1cc(C2C3CN(C)CC=C3C(C#N)=C(N)C2(C#N)C#N)ccc1OC(C)C (stereo not drawn),inconclusive: 19.8%,–

# Shown tab-delimited: entries from further up.
Structure (SMILES)	activity change, negative = inhibition	Potency
O=C(Nc1cccc(C(=O)Nc2ccc(S(=O)(=O)O)c3cc(S(=O)(=O)O)cc(S(=O)(=O)O)c23)c1)Nc1cccc(C(=O)Nc2ccc(S(=O)(=O)O)c3cc(S(=O)(=O)O)cc(S(=O)(=O)O)c23)c1	–	inconclusive: 39.8 µM [inhibitor, single point]
COc1ccc(NS(=O)(=O)c2ccc(I)cc2)cc1N1CCN(C)CC1	inconclusive: 52.9%	–
CCCCc1cc2c(c(NC(=O)CC)n1)c(=O)oc1ccccc12	inconclusive: 35%	–

# More compounds.

Structure (SMILES),"activity change, negative = inhibition",Potency
COc1ccc(CCNC(=O)C2(C)CCC(=O)N2CCC(C)C)cc1OC (stereo not drawn),inconclusive: 39.5% [at 2.3 µM],–
CCOC(=O)CCCCC(=O)c1[nH]c(=O)[nH]c1CSc1nc(C)cc(C)n1,–,"inconclusive: 3.98 µM [inhibitor, partial curve]"
Cc1cccc(NC(=O)Nc2ccc(C#N)cc2)n1,inactive,–
CCCCC(CC)COCCCN (stereo not drawn),inactive,–
O=C(Nc1ccccn1)c1ccc(NC(=O)c2ccco2)cc1,inconclusive: 46.9%,–
Cc1cc(NC(=O)c2cnn3c(C(F)(F)F)cc(-c4ccccc4)nc23)no1,inactive,–
CC1CC(C)CN(c2oc(-c3ccccc3Cl)nc2C#N)C1 (stereo not drawn),–,"inconclusive: 10 µM [inhibitor, partial curve]"
COc1ccc(OC)c(NC(=O)Cn2cc(C(=O)c3ccco3)c3ccccc32)c1,inconclusive: 22.2%,–
Cc1ccc(N2CC(C(=O)N3CCN(c4ccccc4)CC3)CC2=O)cc1 (stereo not drawn),inactive,–
COc1ccc2[nH]cc(CCNc3ncncc3-c3cccc(C#N)c3)c2c1,inactive,–
S=C(S)N1CCCC1,inactive,–
COc1ccc(S(=O)(=O)n2c(CCN3CCOCC3)nc3ccccc32)cc1,inactive,–
COc1ccc(CCNC2=NCCS2)cc1,inactive,–
Cc1ccc2c(c1)C(c1ccccc1)N(C(=O)C(C)C)CC(=O)N2 (stereo not drawn),inconclusive: 46.5%,–
Nc1nc(N2CCOCC2)nc(N(c2ccccc2)c2ccccc2)n1,inactive,–
CCc1nnc(NC(=O)COC(=O)CN2C(=O)c3ccccc3C2=O)s1,inactive,–
O=c1oc2c(O)c(O)cc3c(=O)oc4c(O)c(O)cc1c4c23,–,active: 31.6 µM
CC(=O)OC(C)(C)N=Nc1ccc(Br)cc1,inconclusive: 84.2% [at 11 µM],–
c1ccc(-c2ccc(N3CCCC4(CCNCC4)C3)cc2)cc1,–,"inconclusive: 15.8 µM [inhibitor, partial curve]"
N#CCSc1nc2scc(-c3cccs3)c2c(=O)n1CCc1ccccc1,inactive,–
COc1ccc(N2C3=[N+](CC2(C)O)c2ccccc2CC3)cc1 (stereo not drawn),inconclusive: 40.6%,–

Structure (SMILES),"activity change, negative = inhibition",Potency
CS(=O)(=O)c1ccc([C@H](O)[C@H](CF)NC(=O)C(Cl)Cl)cc1,inconclusive: 71% [at 26 µM],–
N#Cc1nc(COc2ccc(Cl)cc2Cl)oc1N1CCN(c2ccccc2)CC1,–,"inconclusive: 25.1 µM [inhibitor, single point]"
Cc1cccc(N2CCN(C(=O)COc3cc(=O)n(C)c4ccccc34)CC2C)c1 (stereo not drawn),inconclusive: 39.2%,–
CCN(CCNC(=O)C1CCN(Cc2nc(-c3ccc(Cl)cc3)oc2C)CC1)c1ccccc1,–,"inconclusive: 25.1 µM [inhibitor, single point]"
O=C(O)CN(CCN(CC(=O)O)CC(=O)O)CC(=O)O.[Mn],–,"inconclusive: 3.16 µM [inhibitor, single point]"
CCSc1nnc(NC(=O)CSc2nnc(Cc3cccn3C)n2CCc2ccccc2)s1,inactive,–
CCCC(=O)Nc1cc2c(cc1C(=O)c1ccccc1)OCCO2,inactive,–
O=C(CSc1nnnn1-c1ccc(F)cc1)NC1CCCCC1,inconclusive: 46%,–
CN(Cc1ccccc1)c1nc2c(c(=O)[nH]c(=O)n2C)n1CCOc1ccccc1,inconclusive: 14.4%,–
CN(C/C=C\c1ccccc1)Cc1cccc2ccccc12,–,"inconclusive: 12.6 µM [activator, single point]"
CN(C)CCCNc1cc(O)c2c(c1O)C(=O)c1ccccc1C2=O,–,"inconclusive: 3.98 µM [inhibitor, single point]"
O=C1C=C(N2CCN(c3ccccn3)CC2)C(=O)c2c(O)ccc(O)c21,–,"inconclusive: 3.16 µM [inhibitor, partial curve]"
c1ccc2c(c1)[nH]c1nc(SCCN3CCOCC3)nnc12,inactive,–
CC1CCC(C(C)C)C(OC(=O)COC(=O)c2cccn2C)C1 (stereo not drawn),–,"inconclusive: 25.1 µM [activator, single point]"
COCCNC(=O)c1ccccc1-c1nc(-c2ccccc2OC)no1,inactive,–
COc1ccc(OC)c(C2SCCN2S(=O)(=O)c2cccc(C(F)(F)F)c2)c1 (stereo not drawn),–,"inconclusive: 31.6 µM [activator, single point]"
O=C(c1csnn1)N1CCC[C@@]2(CCN(c3cccc(-c4ccccc4)c3)C2)C1,–,"inconclusive: 25.1 µM [inhibitor, single point]"
N#CC1=C(N)C(C#N)(C#N)C(c2cccnc2)C2CCCC=C12 (stereo not drawn),inconclusive: 23.8%,–
NS(=O)(=O)c1ccc(N=Nc2cc3ccccc3c(C(=O)O)c2O)cc1,–,"inconclusive: 3.98 µM [inhibitor, partial curve]"
Cc1sc(NC(=O)CSc2nnc(COc3ccc(Cl)cc3)n2C)c(C#N)c1C,inconclusive: 48.3%,–
O=C(CSc1nnc(CNC(=O)c2cccs2)o1)NCc1ccc(F)cc1,inconclusive: 49.4%,–

Structure (SMILES),"activity change, negative = inhibition",Potency
CN(C)CCCNS(=O)(=O)c1cc(Cl)ccc1Cl,inconclusive: 51.4%,–
O=C1CCCC2=C1C(c1ccco1)Nc1ccc3ccccc3c12 (stereo not drawn),inactive,–
CCOC(=O)N1CCN(CC(=O)Nc2cc3c(cc2C(C)=O)OCO3)CC1,inactive,–
CCn1c(NC(=O)c2cccs2)nc2ccccc21,inactive,–
O=c1nc2s/c(=C\c3ccco3)c(=O)n2nc1Cc1ccc(F)cc1,–,"inconclusive: 39.8 µM [inhibitor, single point]"
CN(C)CCCCCCN(C)C,inconclusive: 47.9%,–
COc1ccc(F)cc1S(=O)(=O)n1cc(C)nc1-c1ccccc1,inconclusive: 54.9%,–
N#Cc1c(N2CCCC2)nc(N)c2c(N)nc(N3CCCC3)cc12,–,active: 25.1 µM
COc1ccc(Cc2nnc3n2N=C(c2cc4ccccc4o2)CS3)cc1OC,inactive,–
COc1ccc(C(=O)Oc2c(CN3CCOCC3)cc(Cl)c3cccnc23)cc1OC,inconclusive: 39.9% [at 2.3 µM],–
O=C(c1cccs1)N1CCN(C(=O)c2ccco2)c2ccccc2C1,inactive,–
O=CNCC(=O)NC1CCCCCC1,inconclusive: 47.1%,–
CCN(CC)c1nc2cc(OC)ccc2cc1C#N,–,active: 25.1 µM [activator]
CCOC(=O)C1CCN(C(=O)CCCN2C(=O)c3ccccc3C2=O)CC1,inconclusive: 40.9%,–
Cc1ccc2c(c1)c1cccc3c1n2CCN3CCC(N)=O,–,"inconclusive: 31.6 µM [inhibitor, single point]"
O=C(OCC(F)(F)C(F)F)c1ccccc1C(=O)Oc1ccc(F)cc1F,–,"inconclusive: 20 µM [activator, single point]"
O=C(NCCCN1CCCC1=O)c1cccnc1,inconclusive: 42.5%,–
COCC1C2CC[C@H]3C(OCc4ccc(OC)cc4)OC[C@]4(C)[C@H]3C2=C(CN4C(=O)OC(C)(C)C)[C@H](C)C1COC (stereo partly drawn),inconclusive: 76.1%,–
Clc1ccc(OCc2nc(-c3ccncc3)no2)c(Br)c1,–,"inconclusive: 31.6 µM [activator, single point]"
COc1nc(-c2ccccc2)cc(-c2ccc(OC)c(OC)c2)n1,–,"inconclusive: 3.98 µM [activator, single point]"
